Here are results for 1 molecule from patent publication US20200140551A1.

Results are given in words; binding and its absence hold for the method and conditions named. Some entries that bind do so weakly or less than the wild type.

In the test the target is cynomolgus ICOS (cynomolgus). As to the kind of experiment: screen of the humanized variants; method not described.

B1: 422 H2L5 IgG1 WT (antibody, V domains shown)
VH: QVQLVQSGAEVKKPGSSVKVSCKASGYTFTDYAMHWVRQAPGQGLEWMGLISIYSDHTNYNQKFQGRVTITADKSTSTAYMELSSLRSEDTAVYYCGRNNYGNYGWYFDVWGQGTTVTVSS
VL: EIVLTQSPATLSLSPGERATLSCSASSSVSYMHWYQQKPGQAPRLLIYDTSKLASGIPARFSGSGSGTDYTLTISSLEPEDFAVYYCFQGSGYPYTFGQGTKLEIK
Consider B1, for which the binding entry was “binds”.
